In publication PMC5846061:
No constants are given. Whether binding was seen depends on the method and setting. Binding seen in cells or lysates may run through a third protein. Some results given as binding are weak or reduced against the parent protein; the word gives no strength. Values belong to the substance of their own block, whether it stands above or below them.

Sequences of proteins named here, by UniProt entry; tags and fusion partners are left off.
UniProt Q9Y265: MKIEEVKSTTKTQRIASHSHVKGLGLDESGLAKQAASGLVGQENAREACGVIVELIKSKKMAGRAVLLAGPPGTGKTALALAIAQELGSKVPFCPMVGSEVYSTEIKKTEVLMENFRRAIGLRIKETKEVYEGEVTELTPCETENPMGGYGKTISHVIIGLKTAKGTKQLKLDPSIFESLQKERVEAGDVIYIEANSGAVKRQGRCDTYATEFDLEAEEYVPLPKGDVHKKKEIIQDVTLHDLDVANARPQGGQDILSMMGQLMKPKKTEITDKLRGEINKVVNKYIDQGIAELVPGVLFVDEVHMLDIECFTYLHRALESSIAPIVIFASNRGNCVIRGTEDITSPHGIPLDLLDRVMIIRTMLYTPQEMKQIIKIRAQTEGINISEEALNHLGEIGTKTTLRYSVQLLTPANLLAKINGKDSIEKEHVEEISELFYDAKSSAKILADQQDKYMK
UniProt Q13547: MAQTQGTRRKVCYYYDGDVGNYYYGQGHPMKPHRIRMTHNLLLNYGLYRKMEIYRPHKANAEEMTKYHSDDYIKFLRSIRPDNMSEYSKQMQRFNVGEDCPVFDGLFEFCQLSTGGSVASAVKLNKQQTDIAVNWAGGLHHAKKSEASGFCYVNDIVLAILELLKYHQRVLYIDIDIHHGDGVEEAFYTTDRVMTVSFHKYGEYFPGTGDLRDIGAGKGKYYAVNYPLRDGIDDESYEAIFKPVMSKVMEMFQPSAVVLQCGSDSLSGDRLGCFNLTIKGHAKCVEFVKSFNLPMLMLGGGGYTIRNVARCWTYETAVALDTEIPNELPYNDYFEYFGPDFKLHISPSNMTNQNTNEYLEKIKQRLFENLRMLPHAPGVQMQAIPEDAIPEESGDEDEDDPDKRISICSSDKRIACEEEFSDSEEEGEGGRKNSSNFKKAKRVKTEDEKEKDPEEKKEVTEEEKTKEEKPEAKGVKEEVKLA

Key:
[1] = target: 3xFLAG-tagged ING3 W385A (human) (UniProt Q9NXR8); assay: co-IP; HEK293T transfected with FLAG-tagged ING3 constructs; α-FLAG immunoprecipitates blotted with α-TIP49A
[2] = target: 3xFLAG-tagged ING3, wild type (human) (UniProt Q9NXR8); assay: as above
[3] = target: 3xFLAG-tagged ING3 Y362A (human) (UniProt Q9NXR8); assay: as above
[4] = target: 3xFLAG-tagged ING3, wild type (human) (UniProt Q9NXR8); assay: co-IP; FLAG-ING3 and YFP-HDAC1 co-expressed in HEK293T; immunoprecipitated with α-FLAG M2 agarose, blotted with α-GFP
[5] = target: ING3 in LNCaP cells (human) (UniProt Q9NXR8); assay: co-IP; LNCaP cells, mild immunoprecipitation conditions; no figure shown

- binding [1]: binds
- binding [2]: binds
- binding [3]: binds
Substance: TIP49A (from UniProt Q9Y265 1-456)

- binding [4]: binds
Substance: YFP-HDAC1 (from UniProt Q13547 1-482) (enzyme)

- binding [5]: no binding
Substance: p53 in LNCaP cells (from UniProt P04637 1-393)
